# Source: patent US20160113911A1, “METHODS AND COMPOSITIONS FOR THE TREATMENT OF CANCER” (THE GENERAL HOSPITAL CORPORATION, priority 2013, published 2016)
# B1: KDM4A WT: wild type KDM4A (major allele E482) (protein)
# chain: MASESETLNPSARIMTFYPTMEEFRNFSRYIAYIESQGAHRAGLAKVVPPKEWKPRASYDDIDDLVIPAPIQQLVTGQSGLFTQYNIQKKAMTVREFRKIANSDKYCTPRYSEFEELERKYWKNLTFNPPIYGADVNGTLYEKHVDEWNIGRLRTILDLVEKESGITIEGVNTPYLYFGMWKTSFAWHTEDMDLYSINYLHFGEPKSWYSVPPEHGKRLERLAKGFFPGSAQSCEAFLRHKMTLISPLMLKKYGIPFDKVTQEAGEFMITFPYGYHAGFNHGFNCAESTNFATRRWIEYGKQAVLCSCRKDMVKISMDVFVRKFQPERYKLWKAGKDNTVIDHTLPTPEAAEFLKESELPPRAGNEEECPEEDMEGVEDGEEGDLKTSLAKHRIGTKRHRVCLEIPQEVSQSELFPKEDLSSEQYEMTECPAALAPVRPTHSSVRQVEDGLTFPDYSDSTEVKFEELKNVKLEEEDEEEEQEAAALDLSVNPASVGGRLVFSGSKKKSSSSLGSGSSRDSISSDSETSEPLSCRAQGQTGVLTVHSYAKGDGRVTVGEPCTRKKGSAARSFSERELAEVADEYMFSLEENKKSKGRRQPLSKLPRHHPLVLQECVSDDETSEQLTPEEEAEETEAWAKPLSQLWQNRPPNFEAEKEFNETMAQQAPHCAVCMIFQTYHQVEFGGFNQNCGNASDLAPQKQRTKPLIPEMCFTSTGCSTDINLSTPYLEEDGTSILVSCKKCSVRVHASCYGVPPAKASEDWMCSRCSANALEEDCCLCSLRGGALQRANDDRWVHVSCAVAILEARFVNIAERSPVDVSKIPLPRFKLKCIFCKKRRKRTAGCCVQCSHGRCPTAFHVSCAQAAGVMMQPDDWPFVVFITCFRHKIPNLERAKGALQSITAGQKVISKHKNGRFYQCEVVRLTTETFYEVNFDDGSFSDNLYPEDIVSQDCLQFGPPAEGEVVQVRWTDGQVYGAKFVASHPIQMYQVEFEDGSQLVVKRDDVYTLDEELPKRVKSRLSVASDMRFNEIFTEKEVKQEKKRQRVINSRYREDYIEPALYRAIME
# modifications: left off: large carriers
# B2: KDM4A SNP-A482: KDM4A germline variant E482A (protein)
# chain: MASESETLNPSARIMTFYPTMEEFRNFSRYIAYIESQGAHRAGLAKVVPPKEWKPRASYDDIDDLVIPAPIQQLVTGQSGLFTQYNIQKKAMTVREFRKIANSDKYCTPRYSEFEELERKYWKNLTFNPPIYGADVNGTLYEKHVDEWNIGRLRTILDLVEKESGITIEGVNTPYLYFGMWKTSFAWHTEDMDLYSINYLHFGEPKSWYSVPPEHGKRLERLAKGFFPGSAQSCEAFLRHKMTLISPLMLKKYGIPFDKVTQEAGEFMITFPYGYHAGFNHGFNCAESTNFATRRWIEYGKQAVLCSCRKDMVKISMDVFVRKFQPERYKLWKAGKDNTVIDHTLPTPEAAEFLKESELPPRAGNEEECPEEDMEGVEDGEEGDLKTSLAKHRIGTKRHRVCLEIPQEVSQSELFPKEDLSSEQYEMTECPAALAPVRPTHSSVRQVEDGLTFPDYSDSTEVKFEELKNVKLEEEDEEEEQAAAALDLSVNPASVGGRLVFSGSKKKSSSSLGSGSSRDSISSDSETSEPLSCRAQGQTGVLTVHSYAKGDGRVTVGEPCTRKKGSAARSFSERELAEVADEYMFSLEENKKSKGRRQPLSKLPRHHPLVLQECVSDDETSEQLTPEEEAEETEAWAKPLSQLWQNRPPNFEAEKEFNETMAQQAPHCAVCMIFQTYHQVEFGGFNQNCGNASDLAPQKQRTKPLIPEMCFTSTGCSTDINLSTPYLEEDGTSILVSCKKCSVRVHASCYGVPPAKASEDWMCSRCSANALEEDCCLCSLRGGALQRANDDRWVHVSCAVAILEARFVNIAERSPVDVSKIPLPRFKLKCIFCKKRRKRTAGCCVQCSHGRCPTAFHVSCAQAAGVMMQPDDWPFVVFITCFRHKIPNLERAKGALQSITAGQKVISKHKNGRFYQCEVVRLTTETFYEVNFDDGSFSDNLYPEDIVSQDCLQFGPPAEGEVVQVRWTDGQVYGAKFVASHPIQMYQVEFEDGSQLVVKRDDVYTLDEELPKRVKSRLSVASDMRFNEIFTEKEVKQEKKRQRVINSRYREDYIEPALYRAIME
# modifications: left off: large carriers; small tags and cut ends
# notes: KDM4A germline variant E482A
# B3: 2A-I87V: KDM4A mutation (protein)
# chain: MASESETLNPSARIMTFYPTMEEFRNFSRYIAYIESQGAHRAGLAKVVPPKEWKPRASYDDIDDLVIPAPIQQLVTGQSGLFTQYNVQKKAMTVREFRKIANSDKYCTPRYSEFEELERKYWKNLTFNPPIYGADVNGTLYEKHVDEWNIGRLRTILDLVEKESGITIEGVNTPYLYFGMWKTSFAWHTEDMDLYSINYLHFGEPKSWYSVPPEHGKRLERLAKGFFPGSAQSCEAFLRHKMTLISPLMLKKYGIPFDKVTQEAGEFMITFPYGYHAGFNHGFNCAESTNFATRRWIEYGKQAVLCSCRKDMVKISMDVFVRKFQPERYKLWKAGKDNTVIDHTLPTPEAAEFLKESELPPRAGNEEECPEEDMEGVEDGEEGDLKTSLAKHRIGTKRHRVCLEIPQEVSQSELFPKEDLSSEQYEMTECPAALAPVRPTHSSVRQVEDGLTFPDYSDSTEVKFEELKNVKLEEEDEEEEQAAAALDLSVNPASVGGRLVFSGSKKKSSSSLGSGSSRDSISSDSETSEPLSCRAQGQTGVLTVHSYAKGDGRVTVGEPCTRKKGSAARSFSERELAEVADEYMFSLEENKKSKGRRQPLSKLPRHHPLVLQECVSDDETSEQLTPEEEAEETEAWAKPLSQLWQNRPPNFEAEKEFNETMAQQAPHCAVCMIFQTYHQVEFGGFNQNCGNASDLAPQKQRTKPLIPEMCFTSTGCSTDINLSTPYLEEDGTSILVSCKKCSVRVHASCYGVPPAKASEDWMCSRCSANALEEDCCLCSLRGGALQRANDDRWVHVSCAVAILEARFVNIAERSPVDVSKIPLPRFKLKCIFCKKRRKRTAGCCVQCSHGRCPTAFHVSCAQAAGVMMQPDDWPFVVFITCFRHKIPNLERAKGALQSITAGQKVISKHKNGRFYQCEVVRLTTETFYEVNFDDGSFSDNLYPEDIVSQDCLQFGPPAEGEVVQVRWTDGQVYGAKFVASHPIQMYQVEFEDGSQLVVKRDDVYTLDEELPKRVKSRLSVASDMRFNEIFTEKEVKQEKKRQRVINSRYREDYIEPALYRAIME
# B4: 2A-E113K: KDM4A mutation (protein)
# chain: MASESETLNPSARIMTFYPTMEEFRNFSRYIAYIESQGAHRAGLAKVVPPKEWKPRASYDDIDDLVIPAPIQQLVTGQSGLFTQYNIQKKAMTVREFRKIANSDKYCTPRYSKFEELERKYWKNLTFNPPIYGADVNGTLYEKHVDEWNIGRLRTILDLVEKESGITIEGVNTPYLYFGMWKTSFAWHTEDMDLYSINYLHFGEPKSWYSVPPEHGKRLERLAKGFFPGSAQSCEAFLRHKMTLISPLMLKKYGIPFDKVTQEAGEFMITFPYGYHAGFNHGFNCAESTNFATRRWIEYGKQAVLCSCRKDMVKISMDVFVRKFQPERYKLWKAGKDNTVIDHTLPTPEAAEFLKESELPPRAGNEEECPEEDMEGVEDGEEGDLKTSLAKHRIGTKRHRVCLEIPQEVSQSELFPKEDLSSEQYEMTECPAALAPVRPTHSSVRQVEDGLTFPDYSDSTEVKFEELKNVKLEEEDEEEEQAAAALDLSVNPASVGGRLVFSGSKKKSSSSLGSGSSRDSISSDSETSEPLSCRAQGQTGVLTVHSYAKGDGRVTVGEPCTRKKGSAARSFSERELAEVADEYMFSLEENKKSKGRRQPLSKLPRHHPLVLQECVSDDETSEQLTPEEEAEETEAWAKPLSQLWQNRPPNFEAEKEFNETMAQQAPHCAVCMIFQTYHQVEFGGFNQNCGNASDLAPQKQRTKPLIPEMCFTSTGCSTDINLSTPYLEEDGTSILVSCKKCSVRVHASCYGVPPAKASEDWMCSRCSANALEEDCCLCSLRGGALQRANDDRWVHVSCAVAILEARFVNIAERSPVDVSKIPLPRFKLKCIFCKKRRKRTAGCCVQCSHGRCPTAFHVSCAQAAGVMMQPDDWPFVVFITCFRHKIPNLERAKGALQSITAGQKVISKHKNGRFYQCEVVRLTTETFYEVNFDDGSFSDNLYPEDIVSQDCLQFGPPAEGEVVQVRWTDGQVYGAKFVASHPIQMYQVEFEDGSQLVVKRDDVYTLDEELPKRVKSRLSVASDMRFNEIFTEKEVKQEKKRQRVINSRYREDYIEPALYRAIME
# B5: 2A-K123I: KDM4A mutation (protein)
# chain: MASESETLNPSARIMTFYPTMEEFRNFSRYIAYIESQGAHRAGLAKVVPPKEWKPRASYDDIDDLVIPAPIQQLVTGQSGLFTQYNIQKKAMTVREFRKIANSDKYCTPRYSEFEELERKYWINLTFNPPIYGADVNGTLYEKHVDEWNIGRLRTILDLVEKESGITIEGVNTPYLYFGMWKTSFAWHTEDMDLYSINYLHFGEPKSWYSVPPEHGKRLERLAKGFFPGSAQSCEAFLRHKMTLISPLMLKKYGIPFDKVTQEAGEFMITFPYGYHAGFNHGFNCAESTNFATRRWIEYGKQAVLCSCRKDMVKISMDVFVRKFQPERYKLWKAGKDNTVIDHTLPTPEAAEFLKESELPPRAGNEEECPEEDMEGVEDGEEGDLKTSLAKHRIGTKRHRVCLEIPQEVSQSELFPKEDLSSEQYEMTECPAALAPVRPTHSSVRQVEDGLTFPDYSDSTEVKFEELKNVKLEEEDEEEEQAAAALDLSVNPASVGGRLVFSGSKKKSSSSLGSGSSRDSISSDSETSEPLSCRAQGQTGVLTVHSYAKGDGRVTVGEPCTRKKGSAARSFSERELAEVADEYMFSLEENKKSKGRRQPLSKLPRHHPLVLQECVSDDETSEQLTPEEEAEETEAWAKPLSQLWQNRPPNFEAEKEFNETMAQQAPHCAVCMIFQTYHQVEFGGFNQNCGNASDLAPQKQRTKPLIPEMCFTSTGCSTDINLSTPYLEEDGTSILVSCKKCSVRVHASCYGVPPAKASEDWMCSRCSANALEEDCCLCSLRGGALQRANDDRWVHVSCAVAILEARFVNIAERSPVDVSKIPLPRFKLKCIFCKKRRKRTAGCCVQCSHGRCPTAFHVSCAQAAGVMMQPDDWPFVVFITCFRHKIPNLERAKGALQSITAGQKVISKHKNGRFYQCEVVRLTTETFYEVNFDDGSFSDNLYPEDIVSQDCLQFGPPAEGEVVQVRWTDGQVYGAKFVASHPIQMYQVEFEDGSQLVVKRDDVYTLDEELPKRVKSRLSVASDMRFNEIFTEKEVKQEKKRQRVINSRYREDYIEPALYRAIME
# Assay: Subcellular localization of KDM4 variants (immunofluorescence)
# Format: cell-based
# Settings: for both nuclear and cytoplasmic / exclusively nuclear: % of the cells, transiently transfected GFP-tagged KDM4A; for Localization: KDM4A mutations, % nuclear
Molecule,both nuclear and cytoplasmic,exclusively nuclear,Localization
B1,15%,85%,
B2,49%,51%,
B3,,,+++ (+++ indicates >80% nuclear)
B4,,,+++ (+++ indicates >80% nuclear)
B5,,,+ (+ indicates 40-59% nuclear)
